Reference: PubChem BioAssay AID1259254 (NCATS, 2017)
Shown is a random part of about 59,000 deposited reagents. About 1,550 of all reagents (2.6%) count as active. 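G2 share is only a proxy for re-replication; each gene was hit by three separate siRNAs, and active genes were retested.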 The raw values are shown without normalisation. Unmarked entries are inactive. Not given: the amount of reagent.

- Screen: 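Finding genes that stop cells copying their DNA twice in one cycle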 (primary screen)
- Cells: human HCT116 colorectal cancer cells
- Reagent: single siRNA against human genes
- Timing: 3 days
- Measured: 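Nuclei stained with Hoechst and imaged; cell-cycle phase assigned by DNA content; G2 share scaled per plate, non-targeting siRNA 0%, GMNN siRNA 100%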
- Scale: G2 robust z-score and G2 cells, % of GMNN control: higher = more G2 cells, more excess DNA replication; raw share of cells in G2: higher = larger share of cells with G2 DNA content
- Active means: 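An siRNA counts as active if its G2 robust z-score lies at least 5 MADs above the screen median; here such calls match roughly 38% of GMNN control or more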

| target | PubChem SID | G2 robust z-score | G2 cells, % of GMNN control | raw share of cells in G2 (%) |
| --- | --- | --- | --- | --- |
| THRAP3 (thyroid hormone receptor associated protein 3) | SID160723568 | -1.14 | -5.05 | 1.48 |
| THRAP3 (thyroid hormone receptor associated protein 3) | SID160723570 | -0.999 | -4.06 | 3.67 |
| THRAP3 (thyroid hormone receptor associated protein 3) | SID160723571 | -0.434 | -0.0894 | 4.71 |
| CST8 (cystatin 8) | SID160724448 | 1.11 | 10.8 | 9.13 |
| CST8 (cystatin 8) | SID160724460 | -0.921 | -3.51 | 2 |
| CST8 (cystatin 8) | SID160730398 | 0.378 | 5.62 | 7.33 |
| FAM220BP (family with sequence similarity 220 member B, pseudogene) | SID160726010 | -0.294 | 0.897 | 3.56 |
| FAM220BP (family with sequence similarity 220 member B, pseudogene) | SID160726011 | -0.729 | -2.16 | 2.36 |
| FAM220BP (family with sequence similarity 220 member B, pseudogene) | SID160770116 | -0.51 | -0.623 | 3.54 |
| NID1 (nidogen 1) | SID160778069 | 0.324 | 5.25 | 5.54 |
| NID1 (nidogen 1) | SID160778070 | -0.542 | -0.848 | 4.45 |
| NID1 (nidogen 1) | SID160778071 | -0.292 | 0.916 | 3.44 |
| SF1 (splicing factor 1) | SID160718948 | 0.555 | 6.87 | 8.5 |
| SF1 (splicing factor 1) | SID160731881 | 2.33 | 19.4 | 10.9 |
| SF1 (splicing factor 1) | SID160731882 | 1.3 | 12.1 | 8.76 |
| INPP4A (inositol polyphosphate-4-phosphatase type I A) | SID160775863 | 2.06 | 17.4 | 11.4 |
| INPP4A (inositol polyphosphate-4-phosphatase type I A) | SID160775864 | 0.0282 | 3.17 | 5.36 |
| INPP4A (inositol polyphosphate-4-phosphatase type I A) | SID160775865 | -0.412 | 0.0655 | 5.71 |
| EGFL7 (EGF like domain multiple 7) | SID160731357 | 0.597 | 7.17 | 5.88 |
| EGFL7 (EGF like domain multiple 7) | SID160740215 | -0.507 | -0.601 | 2.58 |
| EGFL7 (EGF like domain multiple 7) | SID160740216 | -1.07 | -4.58 | 3.84 |
| TBXT (T-box transcription factor T) | SID160717617 | -0.269 | 1.08 | 6.04 |
| TBXT (T-box transcription factor T) | SID160717618 | -1.03 | -4.31 | 3.07 |
| TBXT (T-box transcription factor T) | SID160717619 | 3.65 | 28.6 | 13.4 |
| OR2L13 (olfactory receptor family 2 subfamily L member 13) | SID160763362 | -0.833 | -2.89 | 2.59 |
| OR2L13 (olfactory receptor family 2 subfamily L member 13) | SID160763363 | 1.15 | 11.1 | 7.33 |
| OR2L13 (olfactory receptor family 2 subfamily L member 13) | SID160763364 | -0.152 | 1.89 | 3.84 |
| DLGAP1 (DLG associated protein 1) | SID160721768 | -0.168 | 1.78 | 5.35 |
| DLGAP1 (DLG associated protein 1) | SID160721769 | 3.84 | 30 | 15.8 |
| DLGAP1 (DLG associated protein 1) | SID160721770 | 0.0099 | 3.04 | 5.92 |
| DLGAP1 (DLG associated protein 1) | SID160765862 | -0.556 | -0.946 | 3.45 |
| DLGAP1 (DLG associated protein 1) | SID160765863 | -0.571 | -1.05 | 2.95 |
| DLGAP1 (DLG associated protein 1) | SID160765864 | -0.982 | -3.94 | 2.94 |

Individual results from the list:
Value for SF1 (splicing factor 1) [SID160718948] under “G2 robust z-score”: 0.555
For “G2 robust z-score”, EGFL7 (EGF like domain multiple 7) [SID160740216] has -1.07
Under “G2 cells, % of GMNN control”, SF1 (splicing factor 1) [SID160731881] is entered as 19.4
